The entries are a selection whose mix differs from that of the whole data set. For part of these data: At the low end of the ranking the order means little. Some of the results follow. For part of these data: Construct or isoform of the protein are uncertain.
How the values were obtained:
[1] = molecular target: HSF1 (UniProt Q00613); test: DAPPL (digital affinity profiling via proximity ligation, sequencing); details: 10 mM Tris-HCl pH 7.5, 50 mM NaCl, 1 mM DTT, 4% glycerol, room temperature, 30 min; GST-TFs on glutathione beads, 16-mer random dsDNA library, 0.1% …; high values mean tight binding; double strand, one strand shown; scale: fold enrichment (6-mer frequency, TF over GST control)
[2] = molecular target: T1, ELF2 (UniProt Q15723); test: as above; details: 10 mM Tris-HCl pH 7.5, 50 mM NaCl, 1 mM DTT, 4% glycerol, room temperature, 30 min; GST-TFs on glutathione beads, 16-mer random dsDNA library, 0.1% …; high values mean tight binding; double strand, one strand shown; scale: fold enrichment (6-mer frequency, TF over GST control)
T1 sequence: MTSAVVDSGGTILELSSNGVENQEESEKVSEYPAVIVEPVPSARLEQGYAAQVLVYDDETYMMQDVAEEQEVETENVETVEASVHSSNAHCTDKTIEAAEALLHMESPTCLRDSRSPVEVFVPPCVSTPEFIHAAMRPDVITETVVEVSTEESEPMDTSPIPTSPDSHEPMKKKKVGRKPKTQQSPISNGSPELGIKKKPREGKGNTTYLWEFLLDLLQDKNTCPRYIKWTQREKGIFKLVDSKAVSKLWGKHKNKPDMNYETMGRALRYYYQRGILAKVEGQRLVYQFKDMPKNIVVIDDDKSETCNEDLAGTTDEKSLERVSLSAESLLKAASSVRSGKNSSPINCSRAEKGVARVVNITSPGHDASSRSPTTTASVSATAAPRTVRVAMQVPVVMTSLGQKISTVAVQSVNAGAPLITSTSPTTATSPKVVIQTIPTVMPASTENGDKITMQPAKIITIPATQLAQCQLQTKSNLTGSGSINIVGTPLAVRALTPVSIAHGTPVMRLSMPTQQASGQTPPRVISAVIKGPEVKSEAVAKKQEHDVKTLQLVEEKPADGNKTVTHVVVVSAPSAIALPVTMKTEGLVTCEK

The chains behind the UniProt entries cited, without tags or fusion partners. Where a name states a change or a piece, a line headed by the entry shows the natural chain unless it says otherwise.
UniProt Q00613: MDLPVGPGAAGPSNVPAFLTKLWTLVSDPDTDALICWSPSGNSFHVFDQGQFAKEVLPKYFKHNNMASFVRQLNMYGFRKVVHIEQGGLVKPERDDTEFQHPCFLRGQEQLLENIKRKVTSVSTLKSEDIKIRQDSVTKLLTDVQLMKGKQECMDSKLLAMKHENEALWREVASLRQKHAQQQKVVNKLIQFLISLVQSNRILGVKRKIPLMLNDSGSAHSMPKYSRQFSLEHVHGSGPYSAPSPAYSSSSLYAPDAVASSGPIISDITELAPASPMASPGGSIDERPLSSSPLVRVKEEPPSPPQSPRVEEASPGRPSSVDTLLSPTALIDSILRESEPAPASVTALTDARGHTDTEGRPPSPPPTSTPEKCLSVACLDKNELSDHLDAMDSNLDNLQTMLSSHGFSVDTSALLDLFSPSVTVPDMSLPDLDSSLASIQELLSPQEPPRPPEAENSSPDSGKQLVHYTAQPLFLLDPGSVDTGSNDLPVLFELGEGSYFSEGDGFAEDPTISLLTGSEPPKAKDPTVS

Sequence | binding signal [1] | binding signal [2]
CCCGGT | 0.745 | 1.06
CCGGAT | 1.63 | 4.27
GGCATA | 0.877 | 0.906
CTGTAG | 0.944 | 0.905
GTCCCG | 0.997 | 1.18
CCTGTG | 0.849 | 1.06
CTTGAG | 0.918 | 0.872
CTCGGC | 1.31 | 1.34
TTAATA | 2.09 | 1.19
TCATTA | 1.18 | 1.05
ACACCG | 0.795 | 1.07
ATCGCT | 1.08 | 1.01
TTAGCT | 1.82 | 1.22
AAATCG | 1.18 | 1
GGGCAT | 0.77 | 0.876
ATAGCC | 0.901 | 1.03
GATTGC | 0.909 | 0.938
GTTATG | 0.881 | 1.06
CCAACA | 0.836 | 1.02
TCACTA | 1.16 | 1.11
ATAGAT | 1.42 | 1.13
GAAGTC | 0.649 | 1.47
CAATCT | 1.48 | 1.18
TATATT | 1.58 | 1.45

Sequence | binding signal [1] | binding signal [2]
CCAAGT | 0.793 | 0.876
GTTCGT | 0.928 | 0.953
CGAACT | 1.48 | 1.11
CACGTA | 1.05 | 1.1
CACAAC | 0.896 | 1.22
TGGACA | 0.9 | 1.03
TCGTCG | 0.874 | 0.868
TAGGCC | 0.968 | 0.908
ATCGCA | 1.03 | 0.985
CTACAA | 1.16 | 1.12
AAGTTC | 1.94 | 1.6
CTACCC | 1.04 | 1.29
GATAGT | 0.783 | 0.823
GGCTTG | 0.886 | 0.969
TGGGAT | 1.47 | 1.17
CTTCCC | 1.55 | 2.58
ACACAT | 0.958 | 1.24
GTATCG | 0.857 | 0.892
GCCGAA | 1.14 | 0.937
CGTAAC | 0.925 | 1.13
TCATAC | 0.904 | 1.07
GCCGTC | 0.846 | 0.879
TCACCA | 1.01 | 1.1
GACTTC | 1.23 | 3.27

Sequence | binding signal [1] | binding signal [2]
CCCCCT | 1.02 | 1.24
TAGCAG | 1.12 | 1.03
CCCTAT | 1.13 | 1.34
TAGAAG | 2.77 | 1.11
CTTAAC | 1.72 | 1.23
CCCACC | 0.868 | 1.09
GGCGTT | 0.832 | 0.979
GTTACC | 0.805 | 1.06
ACGACC | 0.951 | 1.16
TCACCG | 0.956 | 1.1
AACGAT | 1.32 | 1.19
GTCCGG | 0.521 | 1.1
CCCTGC | 0.943 | 1.11
GTTGGC | 0.729 | 0.896
TTTCAA | 1.23 | 1.29
CGGATT | 1.56 | 1.02
GATAAA | 1.21 | 0.969
TGGGCG | 0.768 | 0.823
GTATAA | 1.16 | 1.09
TGGACT | 1.18 | 1.21
ATAGGT | 0.9 | 0.984
TACCTA | 1.28 | 1.15
TAGTGC | 1.02 | 0.989
TGGTAA | 1.45 | 1.2

Sequence | binding signal [1] | binding signal [2]
CTCGAA | 4.2 | 1.13
TCTGAG | 0.961 | 0.867
ACAAGT | 0.775 | 0.912
GTTCTC | 2.29 | 1.25
CCCTGT | 0.88 | 1.06
ATTACA | 1.4 | 1.13
TCCCGA | 2.34 | 1.32
GCTAAC | 0.913 | 0.998
CGGTAT | 0.806 | 1.17
AACGCC | 0.963 | 1.03
TTGATC | 1.48 | 1.17
CAGTTC | 0.771 | 1.1
AATTAT | 1.55 | 1.28
CTCCGA | 1.49 | 1.29
TACTCA | 1.12 | 1.13
ACCGCC | 0.977 | 1.19
TGCGTT | 1 | 1.1
GAAAAC | 1.08 | 1.08
AGCGCC | 0.908 | 1.02
ACAATT | 1.18 | 1.3
CTGGGG | 0.784 | 0.726
CGTCCA | 0.949 | 0.993
TATGTT | 1.21 | 1.18
ACTAAT | 1.81 | 1.28

Reprinted at random: 3 entries already listed, in no set order.
Sequence | binding signal [1] | binding signal [2]
CTGGGG | 0.784 | 0.726
CTCGAA | 4.2 | 1.13
TACTCA | 1.12 | 1.13

(listing goes on)

Sequence | binding signal [1] | binding signal [2]
AAAGCT | 1.32 | 1.05
TCCTTC | 2.13 | 2.41
CTCATA | 1.25 | 1.32
TGTGCG | 0.862 | 1.01
GTTGTT | 0.953 | 1.11
CTGTCC | 0.948 | 1.18
ACTGGT | 0.952 | 1.02
TTACAG | 1.44 | 1.14
CACCGG | 0.642 | 1.26
TCGCGT | 1.04 | 0.904
TAGCTG | 1.23 | 1.11
TGGTGC | 0.789 | 1.06
TGGCGC | 0.685 | 0.89
TGTACA | 1.01 | 1.17
TGCGGA | 0.799 | 1.84
CCCCGC | 0.912 | 1.08
CCATCT | 1.31 | 1.19
TTGGGC | 0.876 | 1.04
AGCAAA | 1.18 | 0.997
ATGGCA | 1.1 | 1.22
CTACAT | 1.17 | 1.37
CCCCGT | 0.893 | 0.997
ACCCAT | 1.05 | 1.2
ACACTG | 0.943 | 1.01

— PMC7862700
